This is one part of the list.
Key:
Experiment in all cases: log2 fold change, soluble protein after heating vs DMSO (PISA); higher = thermal stabilisation; K562 cells, 10 uM, 30 min; active = over 0.2 and 3.5 SD of the protein, either way, in both replicates (recomputed)
saracatinib = compound: CN1CCN(CCOc2cc(OC3CCOCC3)c3c(Nc4c(Cl)ccc5c4OCO5)ncnc3c2)CC1 [saracatinib]
In short: (§1)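 Aliquots of K562 cells (2×10^6 cells/mL) treated with 10 μM compound for 30 min were heated for 3 min over 48°C-58°C. After pooling and extraction in PBS with 0.5% NP-40 at 4°C, soluble protein from a 21,000xg, 90 min spin was quantified by TMTpro 16plex LC-MS/MS with channel sums equalised. Thermal stability is expressed against control samples, from duplicates, as a log2 fold change.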

Chains of the proteins cited; added tags and fusions are not shown. Lines headed by an entry give the natural chain unless they say otherwise; changes in a name come on top.
UniProt Q9NR30: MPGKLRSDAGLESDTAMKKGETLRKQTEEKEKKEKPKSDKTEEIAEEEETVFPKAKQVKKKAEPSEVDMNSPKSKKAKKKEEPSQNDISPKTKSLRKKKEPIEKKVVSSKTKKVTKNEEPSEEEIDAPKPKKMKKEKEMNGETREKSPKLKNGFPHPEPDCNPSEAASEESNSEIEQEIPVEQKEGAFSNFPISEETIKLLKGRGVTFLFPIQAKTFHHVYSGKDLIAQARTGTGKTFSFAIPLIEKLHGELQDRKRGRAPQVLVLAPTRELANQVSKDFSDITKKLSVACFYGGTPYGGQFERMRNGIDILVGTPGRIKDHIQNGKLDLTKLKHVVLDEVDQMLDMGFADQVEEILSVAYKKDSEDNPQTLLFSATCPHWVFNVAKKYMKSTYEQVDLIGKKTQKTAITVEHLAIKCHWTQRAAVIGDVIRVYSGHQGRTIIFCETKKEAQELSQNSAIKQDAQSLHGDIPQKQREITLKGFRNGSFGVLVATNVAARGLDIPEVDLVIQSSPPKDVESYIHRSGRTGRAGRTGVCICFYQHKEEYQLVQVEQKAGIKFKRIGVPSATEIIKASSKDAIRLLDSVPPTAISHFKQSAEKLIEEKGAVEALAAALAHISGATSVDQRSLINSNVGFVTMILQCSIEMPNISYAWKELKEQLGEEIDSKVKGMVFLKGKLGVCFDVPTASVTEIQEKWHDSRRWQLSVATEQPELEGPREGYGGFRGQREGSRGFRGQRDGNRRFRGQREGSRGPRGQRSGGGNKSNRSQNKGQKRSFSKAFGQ
UniProt Q9Y315: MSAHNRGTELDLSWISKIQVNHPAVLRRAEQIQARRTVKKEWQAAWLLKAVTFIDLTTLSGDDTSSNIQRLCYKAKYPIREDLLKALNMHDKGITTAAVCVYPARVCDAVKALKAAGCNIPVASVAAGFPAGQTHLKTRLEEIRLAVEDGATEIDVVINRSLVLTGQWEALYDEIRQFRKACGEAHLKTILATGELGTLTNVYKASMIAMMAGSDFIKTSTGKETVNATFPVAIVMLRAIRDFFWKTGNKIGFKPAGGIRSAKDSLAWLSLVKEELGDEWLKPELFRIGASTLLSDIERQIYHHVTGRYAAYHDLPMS
UniProt Q92499: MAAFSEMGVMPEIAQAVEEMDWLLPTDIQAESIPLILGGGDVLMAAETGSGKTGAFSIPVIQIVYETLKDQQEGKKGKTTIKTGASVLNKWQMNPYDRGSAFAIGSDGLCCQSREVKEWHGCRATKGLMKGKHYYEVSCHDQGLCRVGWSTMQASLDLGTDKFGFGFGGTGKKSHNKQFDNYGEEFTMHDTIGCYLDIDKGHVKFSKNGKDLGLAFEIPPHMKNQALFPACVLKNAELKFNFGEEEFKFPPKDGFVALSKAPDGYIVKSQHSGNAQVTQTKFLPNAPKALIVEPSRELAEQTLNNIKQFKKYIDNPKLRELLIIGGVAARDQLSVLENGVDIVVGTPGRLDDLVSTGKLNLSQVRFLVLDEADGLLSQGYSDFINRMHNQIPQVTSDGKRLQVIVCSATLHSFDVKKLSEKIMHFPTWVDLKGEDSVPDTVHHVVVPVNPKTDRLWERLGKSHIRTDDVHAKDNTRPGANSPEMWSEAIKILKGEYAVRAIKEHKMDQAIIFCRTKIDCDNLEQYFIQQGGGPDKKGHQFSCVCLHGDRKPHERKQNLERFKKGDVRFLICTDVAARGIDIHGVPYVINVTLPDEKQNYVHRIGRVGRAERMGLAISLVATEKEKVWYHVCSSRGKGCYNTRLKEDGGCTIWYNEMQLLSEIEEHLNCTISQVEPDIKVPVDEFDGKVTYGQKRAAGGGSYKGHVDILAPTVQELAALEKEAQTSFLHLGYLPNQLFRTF
UniProt P30046: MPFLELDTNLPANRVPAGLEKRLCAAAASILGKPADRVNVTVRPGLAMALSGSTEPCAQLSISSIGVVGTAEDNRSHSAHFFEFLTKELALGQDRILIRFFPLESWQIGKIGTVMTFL
UniProt Q15398: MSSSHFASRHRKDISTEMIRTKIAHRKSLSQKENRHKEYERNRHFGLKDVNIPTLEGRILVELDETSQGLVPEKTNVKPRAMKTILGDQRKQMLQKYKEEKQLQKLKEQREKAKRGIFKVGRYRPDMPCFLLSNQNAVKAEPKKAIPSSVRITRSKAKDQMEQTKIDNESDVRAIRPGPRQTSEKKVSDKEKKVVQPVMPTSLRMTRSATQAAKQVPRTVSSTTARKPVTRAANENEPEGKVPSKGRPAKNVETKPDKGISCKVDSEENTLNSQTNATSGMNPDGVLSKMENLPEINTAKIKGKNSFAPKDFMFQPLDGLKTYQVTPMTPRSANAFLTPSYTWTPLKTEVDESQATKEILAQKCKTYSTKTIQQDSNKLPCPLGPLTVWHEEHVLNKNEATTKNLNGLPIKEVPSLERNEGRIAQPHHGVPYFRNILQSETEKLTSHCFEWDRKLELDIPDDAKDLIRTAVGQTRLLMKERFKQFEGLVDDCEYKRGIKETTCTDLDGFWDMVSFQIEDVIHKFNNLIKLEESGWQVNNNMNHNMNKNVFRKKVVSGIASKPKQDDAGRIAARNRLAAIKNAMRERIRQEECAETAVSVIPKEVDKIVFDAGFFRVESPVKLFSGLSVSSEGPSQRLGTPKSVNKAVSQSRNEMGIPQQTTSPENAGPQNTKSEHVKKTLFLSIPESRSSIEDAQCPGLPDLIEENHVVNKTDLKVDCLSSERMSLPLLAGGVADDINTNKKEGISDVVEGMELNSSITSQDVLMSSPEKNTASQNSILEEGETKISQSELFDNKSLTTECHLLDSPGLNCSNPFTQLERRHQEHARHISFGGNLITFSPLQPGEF
UniProt Q8TF46, whole entry, looked up: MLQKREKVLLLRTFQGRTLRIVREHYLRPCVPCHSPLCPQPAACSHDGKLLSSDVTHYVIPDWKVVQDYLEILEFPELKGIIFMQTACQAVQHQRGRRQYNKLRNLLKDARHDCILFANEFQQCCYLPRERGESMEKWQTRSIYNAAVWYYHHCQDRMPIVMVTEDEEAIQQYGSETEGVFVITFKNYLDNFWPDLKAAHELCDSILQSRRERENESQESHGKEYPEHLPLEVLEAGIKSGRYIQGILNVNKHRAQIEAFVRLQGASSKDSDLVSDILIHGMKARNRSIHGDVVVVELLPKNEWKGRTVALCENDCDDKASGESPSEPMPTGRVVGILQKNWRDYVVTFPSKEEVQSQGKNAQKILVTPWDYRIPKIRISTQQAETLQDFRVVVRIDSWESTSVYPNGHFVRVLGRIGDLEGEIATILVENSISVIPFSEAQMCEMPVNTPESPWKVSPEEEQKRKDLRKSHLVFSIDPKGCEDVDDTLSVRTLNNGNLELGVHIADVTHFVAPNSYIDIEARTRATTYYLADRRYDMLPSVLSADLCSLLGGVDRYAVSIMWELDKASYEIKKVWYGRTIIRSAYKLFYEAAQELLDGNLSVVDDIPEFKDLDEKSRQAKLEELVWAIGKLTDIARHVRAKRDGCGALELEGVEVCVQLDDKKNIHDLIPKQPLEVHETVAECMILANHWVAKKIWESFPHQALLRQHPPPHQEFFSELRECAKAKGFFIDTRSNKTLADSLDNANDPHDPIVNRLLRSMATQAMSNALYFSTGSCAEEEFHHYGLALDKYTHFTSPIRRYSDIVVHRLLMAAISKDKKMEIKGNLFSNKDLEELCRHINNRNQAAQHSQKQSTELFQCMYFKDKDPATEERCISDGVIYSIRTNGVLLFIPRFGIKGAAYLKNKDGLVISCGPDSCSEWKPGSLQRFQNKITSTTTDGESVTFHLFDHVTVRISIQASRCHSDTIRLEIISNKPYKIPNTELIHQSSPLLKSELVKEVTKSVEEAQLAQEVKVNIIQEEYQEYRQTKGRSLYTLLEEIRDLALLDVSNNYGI
UniProt Q5VZ89: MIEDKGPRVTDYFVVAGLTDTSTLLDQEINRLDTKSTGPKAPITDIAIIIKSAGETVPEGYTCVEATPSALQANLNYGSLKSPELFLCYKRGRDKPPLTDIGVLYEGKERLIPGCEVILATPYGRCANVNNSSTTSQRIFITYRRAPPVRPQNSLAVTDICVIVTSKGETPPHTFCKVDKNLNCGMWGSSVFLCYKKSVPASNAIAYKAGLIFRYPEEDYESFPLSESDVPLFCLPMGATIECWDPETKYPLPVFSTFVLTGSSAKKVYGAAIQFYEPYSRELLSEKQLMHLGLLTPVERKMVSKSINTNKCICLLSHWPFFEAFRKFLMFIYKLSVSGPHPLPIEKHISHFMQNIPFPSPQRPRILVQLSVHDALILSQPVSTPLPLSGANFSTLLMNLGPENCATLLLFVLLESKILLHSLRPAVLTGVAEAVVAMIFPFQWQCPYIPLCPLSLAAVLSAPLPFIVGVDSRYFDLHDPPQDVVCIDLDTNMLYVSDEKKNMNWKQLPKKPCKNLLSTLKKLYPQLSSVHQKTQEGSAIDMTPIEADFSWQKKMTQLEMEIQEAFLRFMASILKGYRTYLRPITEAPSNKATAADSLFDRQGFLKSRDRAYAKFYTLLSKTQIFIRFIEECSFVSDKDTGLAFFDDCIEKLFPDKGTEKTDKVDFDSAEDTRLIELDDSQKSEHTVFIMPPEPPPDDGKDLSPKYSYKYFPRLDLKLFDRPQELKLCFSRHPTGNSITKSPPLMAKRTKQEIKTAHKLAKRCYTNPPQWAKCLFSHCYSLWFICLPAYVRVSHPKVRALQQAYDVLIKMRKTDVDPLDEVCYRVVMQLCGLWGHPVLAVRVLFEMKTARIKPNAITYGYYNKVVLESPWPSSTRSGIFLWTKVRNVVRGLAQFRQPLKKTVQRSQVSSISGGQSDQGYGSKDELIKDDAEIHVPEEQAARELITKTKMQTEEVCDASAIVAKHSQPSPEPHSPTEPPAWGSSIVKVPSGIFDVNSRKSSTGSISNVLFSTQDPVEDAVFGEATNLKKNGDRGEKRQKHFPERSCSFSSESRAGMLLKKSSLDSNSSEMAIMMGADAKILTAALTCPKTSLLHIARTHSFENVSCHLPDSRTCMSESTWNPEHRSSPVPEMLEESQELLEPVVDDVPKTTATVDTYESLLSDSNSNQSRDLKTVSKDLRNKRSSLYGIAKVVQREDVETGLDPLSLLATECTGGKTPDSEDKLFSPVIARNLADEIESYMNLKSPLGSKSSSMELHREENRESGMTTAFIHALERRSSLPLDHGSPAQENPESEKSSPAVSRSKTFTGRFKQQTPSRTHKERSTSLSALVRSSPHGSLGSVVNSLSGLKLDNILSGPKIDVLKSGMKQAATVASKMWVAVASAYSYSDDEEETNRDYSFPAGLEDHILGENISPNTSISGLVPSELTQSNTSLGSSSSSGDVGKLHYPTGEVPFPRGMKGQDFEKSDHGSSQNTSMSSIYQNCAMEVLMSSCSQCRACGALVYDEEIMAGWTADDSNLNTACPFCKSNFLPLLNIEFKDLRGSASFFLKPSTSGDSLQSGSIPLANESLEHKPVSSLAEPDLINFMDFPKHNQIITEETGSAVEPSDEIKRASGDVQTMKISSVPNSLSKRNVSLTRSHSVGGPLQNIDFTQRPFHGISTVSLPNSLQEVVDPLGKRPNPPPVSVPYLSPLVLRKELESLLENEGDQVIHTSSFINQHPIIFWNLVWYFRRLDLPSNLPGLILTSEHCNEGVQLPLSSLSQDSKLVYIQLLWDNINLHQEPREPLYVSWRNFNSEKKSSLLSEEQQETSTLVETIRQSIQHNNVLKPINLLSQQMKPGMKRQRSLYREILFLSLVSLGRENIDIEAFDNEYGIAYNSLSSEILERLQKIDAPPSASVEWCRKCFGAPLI
UniProt Q13838, whole entry, looked up: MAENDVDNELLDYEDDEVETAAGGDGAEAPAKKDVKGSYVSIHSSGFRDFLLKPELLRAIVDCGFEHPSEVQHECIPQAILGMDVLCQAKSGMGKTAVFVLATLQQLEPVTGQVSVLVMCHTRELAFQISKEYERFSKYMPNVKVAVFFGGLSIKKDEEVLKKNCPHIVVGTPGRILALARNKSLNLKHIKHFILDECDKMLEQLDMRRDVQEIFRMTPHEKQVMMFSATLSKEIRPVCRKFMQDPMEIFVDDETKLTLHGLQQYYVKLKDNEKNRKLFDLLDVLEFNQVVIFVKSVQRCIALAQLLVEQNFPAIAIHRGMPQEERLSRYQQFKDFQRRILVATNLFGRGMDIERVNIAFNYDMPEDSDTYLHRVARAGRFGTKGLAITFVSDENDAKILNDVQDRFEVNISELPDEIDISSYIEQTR
UniProt Q6UWP2: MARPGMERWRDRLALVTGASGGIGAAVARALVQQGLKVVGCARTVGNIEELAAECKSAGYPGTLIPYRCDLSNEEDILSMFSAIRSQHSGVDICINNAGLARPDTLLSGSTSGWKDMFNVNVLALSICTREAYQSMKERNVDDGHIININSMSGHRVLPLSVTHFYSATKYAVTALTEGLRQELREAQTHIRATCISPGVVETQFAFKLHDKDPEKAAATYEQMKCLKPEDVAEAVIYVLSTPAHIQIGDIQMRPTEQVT

sotrastaurin = compound: CN1CCN(c2nc(C3=C(c4c[nH]c5ccccc45)C(=O)NC3=O)c3ccccc3n2)CC1 [sotrastaurin]
In short: as §1

alvocidib = compound: CN1CC[C@H](c2c(O)cc(O)c3c(=O)cc(-c4ccccc4Cl)oc23)[C@H](O)C1 [alvocidib]
In short: as §1

Tubastatin A = compound: CN1CCc2c(c3ccccc3n2Cc2ccc(C(=O)NO)cc2)C1 [Tubastatin A]
In short: as §1

[1] = compound: CNC(=O)C1=CC=CC=C1NC2=NC(=NC=C2Cl)NC3=C(C=C(C=C3)N4CCOCC4)OC
In short: as §1

defactinib = compound: CNC(=O)c1ccc(Nc2ncc(C(F)(F)F)c(NCc3nccnc3N(C)S(C)(=O)=O)n2)cc1 [defactinib]
In short: as §1

rucaparib = compound: CNCc1ccc(-c2[nH]c3cc(F)cc4c3c2CCNC4=O)cc1 [rucaparib]
In short: as §1

[2] = compound: CNc1nc(-c2ccc3c(N)n[nH]c3c2)cc(N2C[C@@H](C(=O)NC3CCCCC3)CC[C@H]2C)n1
In short: as §1

encorafenib = compound: COC(=O)N[C@@H](C)CNc1nccc(-c2cn(C(C)C)nc2-c2cc(Cl)cc(NS(C)(=O)=O)c2F)n1 [encorafenib]
In short: as §1

[3] = compound: COC(=O)[C@H](CCSC)NC(=O)C1=C(C=C(C=C1)NC[C@H](CS)N)C2=CC=CC=C2
In short: as §1

[4] = compound: COC1=CC=C(C=C1)CN2C=CC3=C2C=C(C=C3)C(=O)NO
In short: as §1

filanesib = compound: CON(C)C(=O)N1N=C(c2cc(F)ccc2F)S[C@@]1(CCCN)c1ccccc1 [filanesib]
In short: as §1

zotarolimus = compound: CO[C@H]1C[C@@H]2CC[C@@H](C)[C@@](O)(O2)C(=O)C(=O)N2CCCC[C@H]2C(=O)O[C@H]([C@H](C)C[C@@H]2CC[C@H](n3cnnn3)[C@H](OC)C2)CC(=O)[C@H](C)/C=C(\C)[C@@H](O)[C@@H](OC)C(=O)[C@H](C)C[C@H](C)/C=C/C=C/C=C/1C [zotarolimus]
In short: as §1

idasanutlin = compound: COc1cc(C(=O)O)ccc1NC(=O)[C@@H]1N[C@@H](CC(C)(C)C)[C@](C#N)(c2ccc(Cl)cc2F)[C@H]1c1cccc(Cl)c1F [idasanutlin]
In short: as §1

alisertib = compound: COc1cc(Nc2ncc3c(n2)-c2ccc(Cl)cc2C(c2c(F)cccc2OC)=NC3)ccc1C(=O)O [alisertib]
In short: as §1

[5] = compound: COc1cc2nc(-c3cc(F)ccc3O)nc(N[C@@H]3CNC[C@H]3C(C)(C)O)c2cc1OC
In short: as §1

gefitinib = compound: COc1cc2ncnc(Nc3ccc(F)c(Cl)c3)c2cc1OCCCN1CCOCC1 [gefitinib]
In short: as §1

[6] = compound: COc1cccc2cc(-c3nc([C@H]4CC[C@H](C(=O)O)CC4)n4ncnc(N)c34)[nH]c12
In short: as §1

lapatinib = compound: CS(=O)(=O)CCNCc1ccc(-c2ccc3ncnc(Nc4ccc(OCc5cccc(F)c5)c(Cl)c4)c3c2)o1 [lapatinib]
In short: as §1

pictilisib = compound: CS(=O)(=O)N1CCN(Cc2cc3nc(-c4cccc5[nH]ncc45)nc(N4CCOCC4)c3s2)CC1 [pictilisib]
In short: as §1

Measured: log2 fold change

DKC1 (UniProt O60832)
inactive: saracatinib 0.026 | sotrastaurin 0.022 | alvocidib 0.121 | Tubastatin A -0.007 | [1] -0.013 | defactinib 0.149 | rucaparib 0.228 | [2] -0.004 | encorafenib -0.009 | [3] 0.047 | [4] -0.064 | filanesib 0.187 | zotarolimus 0 | idasanutlin 0.094 | alisertib -0.102 | [5] 0.021 | gefitinib -0.042 | [6] -0.003 | lapatinib 0.003 | pictilisib 0

DDX21 (UniProt Q9NR30)
inactive: saracatinib -0.097 | sotrastaurin -0.017 | alvocidib 0.204 | Tubastatin A 0.02 | [1] -0.094 | defactinib 0.47 | rucaparib 0.267 | [2] 0.122 | encorafenib 0.101 | [3] 0 | [4] 0.001 | filanesib 0.233 | zotarolimus -0.01 | idasanutlin 0.283 | alisertib -0.098 | [5] 0.034 | gefitinib -0.046 | [6] -0.101 | lapatinib 0.121 | pictilisib -0.105

DERA (UniProt Q9Y315)
inactive: saracatinib 0.014 | sotrastaurin 0.041 | alvocidib 0 | Tubastatin A -0.007 | [1] -0.027 | defactinib -0.023 | rucaparib -0.002 | [2] -0.064 | encorafenib -0.037 | [3] 0.013 | [4] -0.015 | filanesib 0.062 | zotarolimus -0.039 | idasanutlin -0.008 | alisertib -0.087 | [5] 0.019 | gefitinib -0.007 | [6] 0.031 | lapatinib 0.005 | pictilisib -0.001

DHX9 (UniProt Q08211)
inactive: saracatinib -0.016 | sotrastaurin -0.006 | alvocidib 0.248 | Tubastatin A 0.029 | [1] 0.028 | defactinib 0.401 | rucaparib 0.19 | [2] -0.03 | encorafenib 0.035 | [3] -0.048 | [4] -0.015 | filanesib 0.309 | zotarolimus -0.06 | idasanutlin 0.156 | alisertib -0.106 | [5] 0.182 | gefitinib -0.063 | [6] -0.037 | lapatinib 0.061 | pictilisib -0.037

DDX1 (UniProt Q92499)
inactive: saracatinib -0.034 | sotrastaurin -0.061 | alvocidib 0.086 | Tubastatin A 0.125 | [1] 0.069 | defactinib 0.211 | rucaparib 0.165 | [2] 0.137 | encorafenib 0.162 | [3] -0.03 | [4] 0.023 | filanesib 0.273 | zotarolimus 0.068 | idasanutlin 0.093 | alisertib -0.106 | [5] 0.048 | gefitinib -0.03 | [6] -0.218 | lapatinib 0.042 | pictilisib -0.008

DDT (UniProt P30046)
inactive: saracatinib 0.017 | sotrastaurin 0.019 | alvocidib -0.019 | Tubastatin A -0.008 | [1] -0.011 | defactinib 0.006 | rucaparib -0.013 | [2] -0.03 | encorafenib -0.027 | [3] 0.045 | [4] -0.025 | filanesib -0.047 | zotarolimus 0.042 | idasanutlin -0.018 | alisertib -0.06 | [5] -0.095 | gefitinib 0.007 | [6] 0.003 | lapatinib -0.071 | pictilisib 0.01

DDAH2 (UniProt O95865)
inactive: saracatinib 0.084 | sotrastaurin -0.029 | alvocidib 0.019 | Tubastatin A -0.024 | [1] -0.08 | defactinib 0.01 | rucaparib -0.024 | [2] -0.004 | encorafenib -0.05 | [3] 0.051 | [4] -0.085 | filanesib -0.015 | zotarolimus -0.014 | idasanutlin 0.004 | alisertib -0.009 | [5] 0.038 | gefitinib 0.021 | [6] 0.037 | lapatinib -0.042 | pictilisib 0.035

DGAT1 (UniProt O75907)
inactive: saracatinib 0.098 | sotrastaurin -0.016 | alvocidib 0.024 | Tubastatin A -0.004 | [1] -0.09 | defactinib -0.039 | rucaparib -0.223 | [2] 0.017 | encorafenib 0.116 | [3] -0.064 | [4] -0.063 | filanesib -0.006 | zotarolimus -0.038 | idasanutlin -0.047 | alisertib -0.053 | [5] -0.022 | gefitinib -0.064 | [6] 0.043 | lapatinib -0.001 | pictilisib 0.08

Taken from the listing (two entries):
DDAH2 (UniProt O95865)
inactive: saracatinib 0.084 | sotrastaurin -0.029 | alvocidib 0.019 | Tubastatin A -0.024 | [1] -0.08 | defactinib 0.01 | rucaparib -0.024 | [2] -0.004 | encorafenib -0.05 | [3] 0.051 | [4] -0.085 | filanesib -0.015 | zotarolimus -0.014 | idasanutlin 0.004 | alisertib -0.009 | [5] 0.038 | gefitinib 0.021 | [6] 0.037 | lapatinib -0.042 | pictilisib 0.035

DGAT1 (UniProt O75907)
inactive: saracatinib 0.098 | sotrastaurin -0.016 | alvocidib 0.024 | Tubastatin A -0.004 | [1] -0.09 | defactinib -0.039 | rucaparib -0.223 | [2] 0.017 | encorafenib 0.116 | [3] -0.064 | [4] -0.063 | filanesib -0.006 | zotarolimus -0.038 | idasanutlin -0.047 | alisertib -0.053 | [5] -0.022 | gefitinib -0.064 | [6] 0.043 | lapatinib -0.001 | pictilisib 0.08

(list continues)

DLGAP5 (UniProt Q15398)
inactive: saracatinib -0.047 | sotrastaurin -0.142 | alvocidib 0 | Tubastatin A -0.019 | [1] 0.038 | defactinib -0.086 | rucaparib -0.007 | [2] 0.167 | encorafenib 0.027 | [3] 0.021 | [4] -0.038 | filanesib 0.011 | zotarolimus -0.01 | idasanutlin 0.08 | alisertib 0.032 | [5] -0.075 | gefitinib 0.014 | [6] -0.058 | lapatinib 0.016 | pictilisib 0.006

DIS3L (UniProt Q8TF46)
inactive: saracatinib -0.075 | sotrastaurin -0.117 | alvocidib -0.122 | Tubastatin A -0.036 | [1] -0.035 | defactinib -0.037 | rucaparib 0.205 | [2] 0 | encorafenib -0.509 | [3] -0.079 | [4] -0.247 | filanesib 0.004 | zotarolimus -0.23 | idasanutlin -0.002 | alisertib 0.034 | [5] -0.189 | gefitinib 0.019 | [6] -0.074 | lapatinib 0.031

DHX30 isoform 2 (UniProt Q7L2E3)
inactive: saracatinib -0.091 | sotrastaurin -0.068 | alvocidib 0.091 | Tubastatin A 0.058 | [1] -0.048 | defactinib 0.123 | rucaparib 0.344 | [2] 0.052 | encorafenib 0.008 | [3] -0.034 | [4] -0.032 | filanesib 0.148 | zotarolimus 0.013 | idasanutlin 0.12 | alisertib 0.021 | [5] -0.076 | gefitinib -0.029 | [6] -0.164 | lapatinib 0.105 | pictilisib -0.145

DENND4C isoform 7 (UniProt Q5VZ89)
inactive: saracatinib 0.043 | sotrastaurin -0.069 | alvocidib -0.073 | Tubastatin A -0.009 | [1] 0.048 | defactinib -0.118 | rucaparib 0.017 | [2] -0.033 | encorafenib 0.035 | [3] -0.005 | [4] 0.049 | filanesib -0.059 | zotarolimus -0.01 | idasanutlin 0.012 | alisertib 0.017 | [5] -0.04 | gefitinib -0.022 | [6] -0.031 | lapatinib 0.008 | pictilisib 0.171

DIABLO (UniProt Q9NR28)
inactive: saracatinib 0.049 | sotrastaurin 0.052 | alvocidib -0.05 | Tubastatin A -0.023 | [1] -0.058 | defactinib 0.021 | rucaparib -0.048 | [2] 0.009 | encorafenib -0.041 | [3] -0.017 | [4] -0.026 | filanesib -0.06 | zotarolimus 0.055 | idasanutlin 0.014 | alisertib -0.106 | [5] 0.007 | gefitinib 0.016 | [6] 0.058 | lapatinib -0.003 | pictilisib -0.06

DDX39B isoform 2 (UniProt Q13838)
inactive: saracatinib 0.004 | sotrastaurin -0.011 | alvocidib 0.042 | Tubastatin A -0.013 | [1] -0.061 | defactinib 0.063 | rucaparib 0.046 | [2] -0.03 | encorafenib -0.005 | [3] -0.014 | [4] -0.028 | filanesib 0.084 | zotarolimus -0.009 | idasanutlin 0.037 | alisertib -0.117 | [5] 0.074 | gefitinib -0.045 | [6] -0.022 | lapatinib 0 | pictilisib 0.006

DHRS11 (UniProt Q6UWP2)
inactive: saracatinib -0.037 | sotrastaurin 0.021 | alvocidib -0.089 | Tubastatin A 0.024 | [1] -0.098 | defactinib -0.025 | rucaparib -0.035 | [2] 0.018 | encorafenib -0.011 | [3] -0.021 | [4] -0.003 | filanesib -0.089 | zotarolimus 0.001 | idasanutlin -0.121 | alisertib -0.022 | [5] 0.01 | gefitinib 0 | [6] 0.06 | lapatinib -0.043 | pictilisib 0.072

DES (UniProt P17661)
inactive: saracatinib -0.026 | sotrastaurin -0.21 | alvocidib 0.19 | Tubastatin A 0.133 | [1] -0.141 | defactinib 0 | rucaparib -0.078 | [2] 0.011 | encorafenib -0.009 | [3] -0.008 | [4] -0.128 | filanesib -0.032 | zotarolimus -0.016 | idasanutlin -0.046 | alisertib -0.129 | [5] 0.189 | gefitinib -0.002 | [6] -0.031 | lapatinib -0.106 | pictilisib 0.058
